According to publication PMC9377749 (Molecular Cancer Therapeutics, 2022):

System: MDA-MB-231 cells
Assay: In vitro 2D cytotoxicity
Format: cell-based
Settings: Homo sapiens, MDA-MB-231, 72 h

COc1cccc2c1C(=O)c1c(O)c3c(c(O)c1C2=O)C[C@@](O)(C(=O)CO)C[C@@H]3O[C@H]1C[C@H](N)[C@H](O)[C@H](C)O1 [Dox, Doxorubicin, reference compound]
IC50: 310 nM
